Test results as given in PubChem BioAssay AID493014 (National Center for Advancing Translational Sciences (NCATS), 2011).
Several values for one entry are separate records, joined by “and”; a condition that tells them apart may be missing. Identical values can stand only once. Screen size: about 340,000 compounds; about 170 (0.05%) were called active. The shares of active, inactive and inconclusive entries below differ from those in the screen. Calls follow the shape of the dose curve; as a rule, active = well fitted inhibition curve with a large enough effect in the signal ratio, with a control signal flat (not every such curve was filed as active); inconclusive = small, poorly fitted or top-dose-only effect, or effect the other way, or a change in a side signal; inactive = flat fitted curve, though single readings scatter; the % refers to the signal ratio. Where the call is inconclusive, the potency comes from a doubtful curve fit.
Potency is read from the fitted curve at half-maximal effect.

Assay: qHTS Assay to Find Inhibitors of Chronic Active B-Cell Receptor Signaling;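 as to activity change, negative = inhibition: plate controls were basal doxycycline-induced cells for no effect and cells given 10 µM MG132 for full effect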
Conditions: ABC-DLBCL IkBa-CBG/CBR reporter, luminescence ratio (green luciferase fused to IkBa over red control in TMD8 lymphoma cells), 4 h; activity change, negative = inhibition: at 46.1 µM (top of the series)
In short: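 Compounds up to 46 uM were incubated four hours with TMD8 cells whose green CBG68 luciferase is fused to IkappaBalpha; red CBR luminescence normalised the signal, and concentration-effect curves were fitted to fusion, red and ratio data.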
For `COc1ccc(C)cc1CN1C(=O)c2ccccc2C1=O`, the Potency was inconclusive: 11.2 µM [falling, partial curve, poor fit]. With `O=C1OC(c2cccs2)=N/C1=C/c1ccc(-c2cccc(C(=O)O)c2)o1` the “activity change, negative = inhibition” value was inactive: 0.0999%. For `O=C(Nc1ccc2oc(=O)ccc2c1)c1ccc(-c2ccccc2[N+](=O)[O-])o1`, the activity change, negative = inhibition was inconclusive: 2.65%. For `O=C1CSC(c2cccc(Cl)c2Cl)N1c1ccccn1` (stereo not given), the activity change, negative = inhibition was inconclusive: 2.64%. With `Oc1[nH]c2ccccc2c1C=Nc1ccc2c(c1)OCCO2` the Potency was inconclusive: 35.5 µM [falling, single point]. With `CC(C)OCCCNC(=O)c1sc(=S)n(C)c1N` the activity change, negative = inhibition was inconclusive: 2.13%. With `COc1ccc(C(=O)O/N=C(/c2cccs2)C(C)(C)C)cc1` the activity change, negative = inhibition was inconclusive: 16.3%. For `CCCCOC(=O)c1ccc(NC(=O)c2c(OC)cccc2OC)cc1`, the “activity change, negative = inhibition” value was inactive: 4.23%. For `O=C(Nc1ccc(Oc2ccc(NC(=O)Nc3ccc([N+](=O)[O-])cc3)cc2)cc1)Nc1ccc([N+](=O)[O-])cc1`, the activity change, negative = inhibition was inconclusive: 13.4%. In the case of `Oc1c(C=C2N=c3ccccc3=N2)sc(=S)n1-c1ccc(F)cc1`, the Potency is reported as inconclusive: 11.2 µM [falling, partial curve] and inconclusive: 20.6 µM [falling, partial curve]. For `O=C(CS(=O)(=O)c1ccccc1)c1cc2ccccc2oc1=O`, the Potency was inconclusive: 35.5 µM [falling, single point]. In the case of `Cc1cc(C)nc(NNC2=CC(=[N+]3CCCC3)CCC2)n1`, the activity change, negative = inhibition is reported as inconclusive: 12.9%. In the case of `CC(C)(C)c1[nH]nc2c1C(c1ccncc1)C(C#N)=C(N)O2` (stereo not given), the activity change, negative = inhibition is reported as inconclusive: -0.679%. In the case of `COc1cc(S(=O)(=O)N(Cc2ccc(C)cc2)C2CCCCC2)ccc1-n1cnnn1`, the “activity change, negative = inhibition” value is reported as inactive: 8.3%. In the case of `O=C(CSc1ccccn1)N1CCN(c2cccc(Cl)c2)CC1`, the activity change, negative = inhibition is reported as inconclusive: 15.3%. In the case of `COc1ccc(C(=O)CSc2nnc(CNc3nc(-c4ccccc4)cs3)n2C)cc1`, the “activity change, negative = inhibition” value is reported as inactive: -0.724%. With `COc1ccc(NC(=O)CCC(=O)OCc2ccc(C(=O)Oc3ccc(Cl)cc3)cc2)cc1` the activity change, negative = inhibition was inconclusive: 1.84%. In the case of `Cc1nn(-c2ccccc2)c(N)c1N=Nc1ccccc1`, the activity change, negative = inhibition is reported as inconclusive: -5.32%. For `Cc1cccc(NS(=O)(=O)c2ccc(C3CCCCC3)cc2)n1`, the Potency was inconclusive: 20.6 µM [falling, partial curve]. In the case of `O=S(=O)(Nc1ccc(S(=O)(=O)N2CCOCC2)cc1)c1ccc(Br)cc1`, the “activity change, negative = inhibition” value is reported as inactive: -4.68%. With `COC(=O)c1cc(OC)c(OC)c(OC)c1[N+](=O)[O-]` the activity change, negative = inhibition was inconclusive: 9.32%. With `C=CCOc1ccc(Br)cc1/C=C1/SC(=Nc2ccc(C(=O)O)cc2)NC1=O` the Potency was inconclusive: 3.55 µM [falling, partial curve]. In the case of `Cn1cccc1CC(=O)N/N=C/C=C/c1ccco1`, the “activity change, negative = inhibition” value is reported as inactive: -2.22%. In the case of `COC(=O)CSc1nc(NC(C)(C)C)nc(N(C)C)n1`, the activity change, negative = inhibition is reported as inconclusive: 9%. For `Cc1ccnc(NS(=O)(=O)c2ccc(NC(=O)CC(C)c3ccccc3)cc2)n1` (stereo not given), the Potency was inconclusive: 14.1 µM [falling, partial curve, poor fit]. For `COc1ccc(C2c3[nH]c4ccccc4c3CCN2CCCn2cccn2)c(C)c1C` (stereo not given), the activity change, negative = inhibition was inconclusive: 9.44%. For `CCn1c(C)nc2cc(C(=O)N/N=C/c3cccc(OC)c3O)ccc21`, the “activity change, negative = inhibition” value was inactive: -0.173%. With `O=C(Nc1cccnc1)c1cc(-c2cc(Cl)ccc2O)n[nH]1` the Potency was inconclusive: 35.5 µM [rising, single point]. With `Oc1ccc(Br)cc1-c1cc(-c2ccc(Cl)cc2)n[nH]1` the Potency was inconclusive: 29.1 µM [falling, single point]. In the case of `CCC(=O)NCCc1nc2cc(NC(=O)Nc3ccccc3)ccc2n1C`, the Potency is reported as inconclusive: 22.4 µM [falling, partial curve]. In the case of `O=C(Nc1c(F)cc(F)cc1Br)c1ccco1`, the “activity change, negative = inhibition” value is reported as inactive: -1.03%. For `Cc1c(N=Nc2ccc(N(C)C)cc2)c(=O)n(-c2ccccc2)n1C`, the Potency was inconclusive: 35.5 µM [falling, single point]. In the case of `CCc1c(C)[nH]c2ccc(C)cc2c1=O`, the activity change, negative = inhibition is reported as inconclusive: 22.5%. In the case of `O=C(CSc1nnc(C2CC2)n1C1CC1)c1cccs1`, the activity change, negative = inhibition is reported as inconclusive: 1.44%. With `COc1ccccc1NC(=O)OCC#CCOC(=O)Nc1ccccc1OC` the Potency was inconclusive: 15.8 µM [falling, partial curve]. For `Cc1cccc(CCNC(=O)c2cnc3c(C)cccn3c2=O)c1`, the Potency was inconclusive: 7.94 µM [falling, partial curve, poor fit]. With `Cc1ccccc1-n1c(C)cc(/C=N/Nc2ccc([N+](=O)[O-])cn2)c1C` the Potency was inconclusive: 0.461 µM [falling, full curve, poor fit]. For `O=C(NCCCn1ccnc1)/C(=C/c1cccs1)NC(=O)c1ccco1`, the activity change, negative = inhibition was inconclusive: -0.0834%. In the case of `CCc1ccc(C(=O)NC(=S)Nc2ccc3c(c2)OCCO3)cc1`, the “activity change, negative = inhibition” value is reported as inactive: -2.27%. In the case of `CCOc1ccccc1N1CC(C(=O)Nc2ccccc2CC)CC1=O` (stereo not given), the “activity change, negative = inhibition” value is reported as inactive: 0.364%.
